The other results are listed elsewhere or left out. The data scatter; read single values as rough.
molecular target: T1, ZFYVE16 C895 (UniProt Q7Z3T8); assay: log2 mean competition ratio of IA-DTB cysteine labelling (DMSO/compound) (log2 ratio); higher = stronger cysteine engagement by compound; details: 50 µM; treatment time: 4 h; cell line lysate: HEK293T
T1 sequence (whole entry): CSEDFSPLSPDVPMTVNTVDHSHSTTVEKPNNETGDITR
Experimental: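 IA-DTB competitive cysteine chemoproteomics in HEK293T RIPA lysate. Lysates were treated with compound 29 or 30 at 50 or 200 µM for 4 h, then IA-DTB (500 µM, 1 h), trypsin-digested, NeutrAvidin-enriched and analysed by diaPASEF. Competition ratio = intensity DMSO / intensity compound (n=4 treated, n=64 DMSO); binding: mean log2 CR ≥ 1 and p ≤ 0.05 plus QC filters. Target is the cysteine site.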

SMILES | log2 mean competition ratio
O=C(CCl)N[C@@H]1CCCc2ccccc21 | -0.242
O=C(CCl)N[C@H]1CCCc2ccccc21 | 0.414

same assay, conditions: 200 µM; treatment time: 4 h; cell line lysate: HEK293T

SMILES | log2 mean competition ratio
O=C(CCl)N[C@@H]1CCCc2ccccc21 | -0.264
O=C(CCl)N[C@H]1CCCc2ccccc21 | -0.312
